No constants are given. Whether binding was seen depends on the method and setting. Binding seen in cells or lysates may run through a third protein. Some entries that bind do so weakly or less than the wild type. Tags and fused reporters may be left off the sequences shown.

This assay deals with T1, hemagglutinin (HA)-tagged SMYD5 (SET and MYND domain-containing protein 5) (UniProt Q6GMV2).
T1 sequence: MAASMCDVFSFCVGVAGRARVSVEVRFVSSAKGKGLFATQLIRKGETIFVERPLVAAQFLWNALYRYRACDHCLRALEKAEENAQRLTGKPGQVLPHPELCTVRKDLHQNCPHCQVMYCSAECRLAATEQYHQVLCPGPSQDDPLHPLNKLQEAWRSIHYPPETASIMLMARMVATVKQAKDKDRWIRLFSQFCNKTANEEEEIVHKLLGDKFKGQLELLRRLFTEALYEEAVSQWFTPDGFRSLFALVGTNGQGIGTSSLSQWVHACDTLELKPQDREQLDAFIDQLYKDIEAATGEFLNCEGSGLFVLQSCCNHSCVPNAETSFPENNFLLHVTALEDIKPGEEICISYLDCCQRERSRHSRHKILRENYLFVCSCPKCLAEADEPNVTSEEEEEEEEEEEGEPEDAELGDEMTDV
Description: co-IP.

B1: Flag-tagged PGC-1α (peroxisome proliferator-activated receptor gamma coactivator 1 alpha) (protein, UniProt O70343 1-797)
chain: MAWDMCSQDSVWSDIECAALVGEDQPLCPDLPELDLSELDVNDLDTDSFLGGLKWCSDQSEIISNQYNNEPANIFEKIDEENEANLLAVLTETLDSLPVDEDGLPSFDALTDGAVTTDNEASPSSMPDGTPPPQEAEEPSLLKKLLLAPANTQLSYNECSGLSTQNHAANHTHRIRTNPAIVKTENSWSNKAKSICQQQKPQRRPCSELLKYLTTNDDPPHTKPTENRNSSRDKCASKKKSHTQPQSQHAQAKPTTLSLPLTPESPNDPKGSPFENKTIERTLSVELSGTAGLTPPTTPPHKANQDNPFKASPKLKPSCKTVVPPPTKRARYSECSGTQGSHSTKKGPEQSELYAQLSKSSGLSRGHEERKTKRPSLRLFGDHDYCQSLNSKTDILINISQELQDSRQLDFKDASCDWQGHICSSTDSGQCYLRETLEASKQVSPCSTRKQLQDQEIRAELNKHFGHPCQAVFDDKSDKTSELRDGDFSNEQFSKLPVFINSGLAMDGLFDDSEDESDKLSYPWDGTQPYSLFDVSPSCSSFNSPCRDSVSPPKSLFSQRPQRMRSRSRSFSRHRSCSRSPYSRSRSRSPGSRSSSRSCYYYESSHYRHRTHRNSPLYVRSRSRSPYSRRPRYDSYEAYEHERLKRDEYRKEHEKRESERAKQRERQKQKAIEERRVIYVGKIRPDTTRTELRDRFEVFGEIEECTVNLRDDGDSYGFITYRYTCDAFAALENGYTLRRSNETDFELYFCGRKQFFKSNYADLDTNSDDFDPASTKSKYDSLDFDSLLKEAQRSLRR
In the case of B1, the binding entry is listed as “binds”.

(Values after article doi:10.1101/2020.11.16.385765.)
